# From PubChem BioAssay AID1259354 (Paczesny and Yang Labs, IUPUI and University of Michigan, 2018)
# Sequences of proteins named here, by UniProt entry; tags and fusion partners are left off. A change or cut given only in a name is not applied to a line headed by its entry.
# UniProt Q01638: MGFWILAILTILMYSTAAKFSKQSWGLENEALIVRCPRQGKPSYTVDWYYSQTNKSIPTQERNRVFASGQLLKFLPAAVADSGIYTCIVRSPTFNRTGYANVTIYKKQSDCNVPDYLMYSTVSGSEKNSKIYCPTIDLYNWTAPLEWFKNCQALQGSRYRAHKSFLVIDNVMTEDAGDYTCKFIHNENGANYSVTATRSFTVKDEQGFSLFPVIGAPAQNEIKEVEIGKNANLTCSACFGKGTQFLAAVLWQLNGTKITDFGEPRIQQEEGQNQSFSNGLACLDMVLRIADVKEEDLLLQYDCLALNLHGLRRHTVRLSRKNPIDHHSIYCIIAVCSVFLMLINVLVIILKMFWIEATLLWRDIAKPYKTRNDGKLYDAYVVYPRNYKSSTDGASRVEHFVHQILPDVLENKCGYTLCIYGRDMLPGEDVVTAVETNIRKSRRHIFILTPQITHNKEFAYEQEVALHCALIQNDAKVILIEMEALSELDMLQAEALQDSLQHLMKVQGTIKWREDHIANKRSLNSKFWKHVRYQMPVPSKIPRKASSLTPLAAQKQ
# Hit rate of the full screen: of about 78,000 compounds, about 1,800 (2.3%) were called active. This list was built around the results that the source calls inconclusive (neither active nor inactive); the mix of calls is not that of the screen. Rule as the data show it: active = inhibition above about 30%; inconclusive = mostly about 10% to 28%; inactive = weaker than that.
# Biological target: Interleukin-1 receptor-like 1 (Homo sapiens) (UniProt Q01638)
# Assay: blocks human ST2 binding to IL-33, primary screen, biochemical, AlphaLISA (AID 1259354)
# Details: AlphaLISA ST2-Fc/biotin-IL-33 interaction, 1 h; at 17 µM, active compounds read high
row,Structure (SMILES),inhibition
1,CCCCOc1ccc(S(=O)(=O)N2CCN(c3nc(C)cc(Nc4ccc(OC)cc4)n3)CC2)cc1,inconclusive: 25%
2,O=[N+]([O-])c1cc2c3c(c1)C1C=CCC1C(c1ccccc1)N3CC1CC=CC21 (stereo not drawn),inconclusive: 19%
3,CC(C)NC(=O)[C@@H]1C[C@H](N)CN1C(=O)c1ccc(CN2CCCCCC2)cc1,inconclusive: 12%
4,CC1CCc2c(sc(NC(=O)COc3ccc(C(C)C)cc3)c2C(N)=O)C1 (stereo not drawn),inactive
5,CC(C)CC(=O)Nc1ccc(O)cc1C(=O)O,inactive
6,CCN(CC)CCCn1c(-c2ccc(Br)cc2)cn2c3ccccc3nc12,inconclusive: 26%
7,CCc1nnc(NC(=O)COc2cc(C)c(Cl)c(C)c2)s1,inconclusive: 11%
8,Cc1cc(C)cc(-n2cc(-c3ccc4c(c3)OCO4)[nH]c2=O)c1,inconclusive: 11%
9,COc1ccc2[nH]cc(CCN3C(=O)c4ccccc4C3=O)c2c1,inconclusive: 22%
10,Cc1ccc(S(=O)(=O)NC[C@H]2O[C@@H](CO)[C@@H](O)[C@H]2N2CCN(c3ccc(F)cc3)CC2)cc1,inconclusive: 11%
11,CCOC(=O)c1ccc(Nc2c(C(=O)OCC)cnc3c2ccc2ccccc23)cc1,inconclusive: 13%
12,CC(C)c1nccn1CCCNC(=O)c1cnccn1,inconclusive: 16%
13,c1ccc(CN2CCN(Cc3ccccc3)C2c2ccc3c(c2)OCO3)cc1,inconclusive: 16%
14,CC(C)NC(=O)[C@@H](C)[C@@H]1CC[C@@]2(C)CC[C@H](NC(=O)c3cncnc3)[C@@H](C)[C@@H]2[C@H]1O,inactive
15,O=C(NCCc1c[nH]c(=O)[nH]c1=O)c1scc2c1CCCC2,inconclusive: 15%
16,CCNc1nc(NC(C)C)nc(OCCNC(=O)COc2ccc(Cl)cc2Cl)n1,inconclusive: 16%
17,CCCCCN1C(=O)C(=O)c2cc(Br)ccc21,active: 46%
18,Cc1nc(N(C)C)nc(N2CCN(Cc3cnn(C)c3C3CC3)CC2)c1C,inconclusive: 14%
19,CCOc1ccc(C2CC(c3cccc(Br)c3)n3nc(N)nc3N2)cc1 (stereo not drawn),inactive
20,C=CCn1c(C)csc1=Nc1ccc(S(=O)(=O)Nc2nc(C)cc(C)n2)cc1,inactive
21,N#CC1=C(N)SC(N)=C(C#N)C1c1ccc([N+](=O)[O-])cc1,inconclusive: 29%
22,OCC1(O)CCCN(c2cc(C(F)(F)F)nc(N3CCCC3)n2)CC1 (stereo not drawn),inactive
23,Clc1ccc(-c2noc([C@@H]3Cc4nc[nH]c4CN3Cc3cccs3)n2)cc1,active: 30%
24,CCc1c(C)cc(C(=O)N2CCCC(O)(CN(C)C)C2)c(=O)n1C (stereo not drawn),inconclusive: 10%

# Exported bar-delimited: six of the compounds above.
row | Structure (SMILES) | inhibition
1 | CCCCOc1ccc(S(=O)(=O)N2CCN(c3nc(C)cc(Nc4ccc(OC)cc4)n3)CC2)cc1 | inconclusive: 25%
2 | O=[N+]([O-])c1cc2c3c(c1)C1C=CCC1C(c1ccccc1)N3CC1CC=CC21 (stereo not drawn) | inconclusive: 19%
4 | CC1CCc2c(sc(NC(=O)COc3ccc(C(C)C)cc3)c2C(N)=O)C1 (stereo not drawn) | inactive
6 | CCN(CC)CCCn1c(-c2ccc(Br)cc2)cn2c3ccccc3nc12 | inconclusive: 26%
12 | CC(C)c1nccn1CCCNC(=O)c1cnccn1 | inconclusive: 16%
21 | N#CC1=C(N)SC(N)=C(C#N)C1c1ccc([N+](=O)[O-])cc1 | inconclusive: 29%

# Further records:

row,Structure (SMILES),inhibition
1,Cc1ccccc1C(CC(=O)N(C)Cc1cnn(C)c1)c1ccccc1 (stereo not drawn),inconclusive: 22%
2,Cc1ccccc1Cn1c(=N)n(CC(=O)c2ccco2)c2ccccc21,inconclusive: 13%
3,COc1ccc(CC2(C)OC(c3ccc([N+](=O)[O-])cc3)=NN2C(C)=O)cc1 (stereo not drawn),active: 49%
4,Cc1ccc(NC(=O)c2ccccc2F)c([N+](=O)[O-])c1,inconclusive: 17%
5,N#CC1=C(N)Oc2n[nH]c(C(F)(F)F)c2C1c1ccccc1 (stereo not drawn),inactive
6,COC(=O)c1ccc(CNC(=O)CC2C(=O)NCCN2Cc2cccs2)cc1 (stereo not drawn),inconclusive: 14%
7,O=C(O)CCC(=O)N1N=C(c2ccc(Br)cc2)CC1c1ccco1 (stereo not drawn),inconclusive: 22%
8,COc1cc(COC2CN(Cc3ccc(O)cc3)CC(=O)N(C(C)C)C2)cc(OC)c1 (stereo not drawn),inactive
9,Cc1ccccc1-c1nccn1CCCN1CCOCC1,inactive
10,CN(Cc1ccccc1)c1ncnc2sc3c(c12)CCCC3,inactive
11,Cc1nnc(SCCn2c(N(C)Cc3ccccc3)nc3c2c(=O)[nH]c(=O)n3C)s1,inactive
12,Cc1[nH]c2c(C)ccc(C)c2c1CC(=O)NCCN(C)S(C)(=O)=O,inconclusive: 16%
13,CCn1cnc2sc(C(=O)Oc3ccc(C(=O)OC)cc3)c(C)c2c1=O,inactive
14,Cn1c(=NC(=O)c2ccc(S(=O)(=O)N3CCCCCC3)cc2)sc2ccccc21,inactive
15,COc1ccc2nc([C@H]3CCN(Cc4c[nH]c5ccccc45)C3)[nH]c2c1,inconclusive: 12%
16,CC1=CC(=NC(=O)c2ccc([N+](=O)[O-])cc2)C=C(C)C1=O,inconclusive: 17%
17,N#Cc1cccc(NC(=O)N[C@H]2CO[C@H]3[C@@H]2OC[C@@H]3Nc2nccc(-c3ccc(-c4ccccc4)cc3)n2)c1,inconclusive: 14%
18,O=C(Nc1ccccc1[N+](=O)[O-])c1cccc(S(=O)(=O)N2CCc3ccccc32)c1,inconclusive: 24%
19,COc1cc(NC(=O)c2ccccc2F)c(OC)cc1NC(=O)c1ccccc1,inconclusive: 19%
20,CCOc1cccc(OCCN2CCOCC2)c1,inconclusive: 15%
21,Cc1c(C(=O)N2CCCC2)oc2ccc(S(=O)(=O)N3CC(C)CC(C)C3)cc12 (stereo not drawn),inactive
22,CN(C)CC(=O)N1C[C@@H]2C[C@H](C1)c1ccc(-c3ccccc3CN3CCOCC3)c(=O)n1C2,inconclusive: 16%
23,CN1CC[C@](O)(c2ccccc2)C(C)(C)C1,inactive
24,CC(=O)c1ccc2[nH]c3ccccc3c2c1,inconclusive: 15%

row,Structure (SMILES),inhibition
1,Cc1ccc(S(=O)(=O)NC[C@H]2O[C@@H](CC(=O)N3CCCC3)[C@H](O)[C@@H]2O)cc1,inconclusive: 10%
2,COc1ccc(N2CCN(Cc3nc4c(c(=O)[nH]c(=O)n4C)n3Cc3ccc(F)cc3)CC2)cc1,inactive
3,Cc1[nH]cnc1CN(C)Cc1ccccc1-n1cccn1,inactive
4,O=c1[nH]c(-c2cccc(O)c2)nc2c1cnn2-c1ccccc1,inactive
5,Cc1cc([N+](=O)[O-])ccc1NC(=O)C1CC(=O)N=C(N)S1 (stereo not drawn),inconclusive: 12%
6,CS(=O)(=O)c1ccc(Cc2nc(CCc3ccccc3)n[nH]2)cc1,inactive
7,Cc1nnc(SCc2cccc(Oc3ccccc3)c2)[nH]c1=O,inactive
8,c1cnc2nc([C@H]3CCN(C4CCOCC4)C3)[nH]c2c1,inactive
9,Cc1nn(C)c(C)c1CN(C(=O)c1ccc(-n2cc(NC(=O)c3cccnc3)cn2)cc1)C1CC1,inactive
10,Cc1cc(OCC(=O)NCc2ccc3c(c2)OCO3)ccc1Cl,inconclusive: 13%
11,Cc1ccc(C(=O)N2N=C(c3ccc(Cl)cc3)CC2(O)C(F)(F)F)cc1 (stereo not drawn),inconclusive: 10%
12,COc1cccc(C2C(C#N)=C(N)Oc3n[nH]c(-c4ccc5ccccc5c4)c32)c1 (stereo not drawn),inconclusive: 13%
13,COc1ccc(/C=c2\sc3n(c2=O)CN(c2cccc(F)c2)CN=3)cc1,active: 35%
14,O=C(NCc1ccco1)c1cccc(Cl)c1Cl,inactive
15,Cc1cccc(-n2ccnc2CN2CCCC(CNC(=O)c3cccc4ccccc34)C2)c1 (stereo not drawn),inconclusive: 13%
16,O=C(Nc1ccccc1)O[C@@H]1CO[C@H]2[C@@H]1OC[C@@H]2NCc1ccccc1,inconclusive: 14%
17,CCCc1cnc(N2CCC3(CCC(=O)N(C)CC3)CC2)nc1,inconclusive: 15%
18,CC(C)CC(=O)OC1c2c(ccc3ccc(=O)oc23)OC1C(C)(C)OC(=O)CC(C)C (stereo not drawn),inconclusive: 15%
19,NS(=O)(=O)c1ccc(NC(=O)c2cc3c([nH]c2=O)CCCC3=O)cc1,inconclusive: 22%
20,O=C(COc1ccccc1)N1CCN=C1SCc1cccnc1,inconclusive: 16%
21,c1ccc(C2Oc3ccccc3C3CC(c4cccs4)=NN32)cc1 (stereo not drawn),active: 34%
22,CCc1cc2c(cc3c(=O)n(CC(=O)NCCCN4CCN(CC)CC4)nc(CC)n32)s1,inactive
23,CC1CCCCN1C1CN(c2nc(-c3cccnc3)nc3c2cnn3C)C1 (stereo not drawn),inconclusive: 13%
24,Cc1cc(S(=O)(=O)Nc2cccnc2)c(Cl)cc1Cl,inactive

row,Structure (SMILES),inhibition
1,Cc1ccn2c(NC(=O)C3CC3)c(-c3ccc(F)cc3)nc2c1,inconclusive: 17%
2,O=C1C(=O)c2ccccc2C(O)=C1c1ccc([N+](=O)[O-])cc1,inconclusive: 21%
3,O=C(NC(NCc1cccnc1)C(Cl)(Cl)Cl)c1ccc(Br)cc1 (stereo not drawn),inactive
4,COc1ccccc1CNC(=O)C[C@@H]1CCNC[C@@H]1Cc1cc(-c2ccc(C(C)(C)C)cc2)on1,inconclusive: 10%
5,CCOC(=O)C1(CCCc2ccccc2)CCCN(Cc2nccn2CC)C1 (stereo not drawn),inconclusive: 23%
6,CC(C)C(NS(=O)(=O)c1cccs1)C(=O)Nc1cccc2c1CCCC2 (stereo not drawn),inactive
7,CC(C)(C)CC(=O)Nc1cccc(I)c1,inactive
8,O=C(Cc1c(C(=O)O)[nH]c2ccc(Cl)cc12)NCc1ccccn1,inconclusive: 15%
9,Cc1ccc(/C=N\OC(=O)c2nn(C)cc2Cl)cc1,inactive
10,CCOC(=O)CC(=O)CSc1nc(C(F)(F)F)cc(C)c1C#N,inactive
11,O=C(CSc1c2c(nc3ccccc13)CCC2)Nc1ccccc1F,inconclusive: 11%
12,CCCCN(C)CCNC(=O)c1ccc2c(c1)NC(=O)C(N1CCCC1)S2 (stereo not drawn),inconclusive: 13%
13,CCC(=O)N(Cc1ccc(OC)cc1)Cc1cccc(C)c1,inconclusive: 13%
14,O=C(NCCCN1CCN(c2ccc(F)cc2)CC1)C1CCCN1c1nnc(N2CCCC2=O)s1 (stereo not drawn),inactive
15,CN1C=CC=C/C1=C\C=C1\C=Nc2ccccc21,inactive
16,Cn1c(=O)c(CN2CCCC(OCc3ccccn3)C2)cc2ccccc21 (stereo not drawn),inactive
17,O=C1NCCN(CCc2ccccc2)C1CC(=O)N1CCN(c2ncccn2)CC1 (stereo not drawn),inconclusive: 12%
18,COc1ccc(-c2ccnc(N[C@H]3CO[C@H]4[C@@H]3OC[C@H]4OC(=O)Nc3cccc(C#N)c3)n2)cc1,inconclusive: 13%
19,C=CC(C)(O)CC1C(C)(O)CCC2C(C)(C)CCCC21C (stereo not drawn),inactive
20,O=C(c1cc(F)c(F)cc1Cl)N1CCCCC1,inconclusive: 13%
21,CN(CC1CCN(CCc2ccccc2F)CC1)C(=O)c1cn(C)c2ccccc12,inconclusive: 11%
